The supplement of paper PMC8728848
The other results are listed elsewhere or left out.

Experiments:
Assay in all cases: glycan array binding signal (z-score within array); higher = stronger binding
Settings in all cases: glycan notation: IUPAC condensed, linker removed
[1] = molecular target: GlcNAc(b1-3)Gal(b1-4)GlcNAc(b1-3)Gal(b1-4)GlcNAc(b1-2)Man(a1-3)[GlcNAc(b1-3)Gal(b1-4)GlcNAc(b1-3)Gal(b1-4)GlcNAc(b1-2)Man(a1-6)]Man(b1-4)GlcNAc(b1-4)[Fuc(a1-6)]GlcNAc
Summary of the method: (§1)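 The binding signal is a Z-score computed within each array and averaged over linkers. Arrays of the same protein sequence at different concentrations or buffers were also averaged together. Data originate from 3228 arrays in the Consortium for Functional Glycomics database, kept only where the protein sequence was available.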

[2] = molecular target: GlcNAc(b1-3)Gal(b1-4)GlcNAc(b1-3)Gal(b1-4)GlcNAc(b1-2)[GlcNAc(b1-3)Gal(b1-4)GlcNAc(b1-3)Gal(b1-4)GlcNAc(b1-6)]Man(a1-6)[GlcNAc(b1-3)Gal(b1-4)GlcNAc(b1-3)Gal(b1-4)GlcNAc(b1-2)Man(a1-3)]Man(b1-4)GlcNAc(b1-4)[Fuc(a1-6)]GlcNAc
Summary of the method: as §1

[3] = molecular target: GlcNAc(b1-3)Gal(b1-4)GlcNAc(b1-3)Gal(b1-4)GlcNAc(b1-3)Gal(b1-4)GlcNAc(b1-2)Man(a1-3)[GlcNAc(b1-3)Gal(b1-4)GlcNAc(b1-3)Gal(b1-4)GlcNAc(b1-3)Gal(b1-4)GlcNAc(b1-2)Man(a1-6)]Man(b1-4)GlcNAc(b1-4)GlcNAc
Summary of the method: as §1

[4] = molecular target: GlcNAc(b1-3)Gal(b1-4)GlcNAc(b1-3)Gal(b1-4)GlcNAc(b1-3)Gal(b1-4)GlcNAc(b1-2)Man(a1-3)[GlcNAc(b1-3)Gal(b1-4)GlcNAc(b1-3)Gal(b1-4)GlcNAc(b1-3)Gal(b1-4)GlcNAc(b1-2)Man(a1-6)]Man(b1-4)GlcNAc(b1-4)[Fuc(a1-6)]GlcNAc
Summary of the method: as §1

[5] = molecular target: GlcNAc(b1-3)Gal(b1-4)GlcNAc(b1-3)Gal(b1-4)GlcNAc(b1-3)Gal(b1-4)GlcNAc(b1-2)[GlcNAc(b1-3)Gal(b1-4)GlcNAc(b1-3)Gal(b1-4)GlcNAc(b1-3)Gal(b1-4)GlcNAc(b1-6)]Man(a1-6)[GlcNAc(b1-3)Gal(b1-4)GlcNAc(b1-3)Gal(b1-4)GlcNAc(b1-3)Gal(b1-4)GlcNAc(b1-2)Man(a1-3)]Man(b1-4)GlcNAc(b1-4)[Fuc(a1-6)]GlcNAc
Summary of the method: as §1

[6] = molecular target: GlcNAc(b1-3)Gal(b1-4)GlcNAc(b1-3)Gal(b1-4)GlcNAc(b1-3)Gal(b1-4)GlcNAc(b1-3)Gal(b1-4)GlcNAc(b1-2)Man(a1-3)[GlcNAc(b1-3)Gal(b1-4)GlcNAc(b1-3)Gal(b1-4)GlcNAc(b1-3)Gal(b1-4)GlcNAc(b1-3)Gal(b1-4)GlcNAc(b1-2)Man(a1-6)]Man(b1-4)GlcNAc(b1-4)GlcNAc
Summary of the method: as §1

[7] = molecular target: GlcNAc(b1-3)Gal(b1-4)GlcNAc(b1-3)Gal(b1-4)GlcNAc(b1-3)Gal(b1-4)GlcNAc(b1-3)Gal(b1-4)GlcNAc(b1-2)Man(a1-3)[GlcNAc(b1-3)Gal(b1-4)GlcNAc(b1-3)Gal(b1-4)GlcNAc(b1-3)Gal(b1-4)GlcNAc(b1-3)Gal(b1-4)GlcNAc(b1-2)Man(a1-6)]Man(b1-4)GlcNAc(b1-4)[Fuc(a1-6)]GlcNAc
Summary of the method: as §1

[8] = molecular target: GlcNAc(b1-3)Gal(b1-4)GlcNAc(b1-3)Gal(b1-4)GlcNAc(b1-3)Gal(b1-4)GlcNAc(b1-3)Gal(b1-4)GlcNAc(b1-2)[GlcNAc(b1-3)Gal(b1-4)GlcNAc(b1-3)Gal(b1-4)GlcNAc(b1-3)Gal(b1-4)GlcNAc(b1-3)Gal(b1-4)GlcNAc(b1-6)]Man(a1-6)[GlcNAc(b1-3)Gal(b1-4)GlcNAc(b1-3)Gal(b1-4)GlcNAc(b1-3)Gal(b1-4)GlcNAc(b1-3)Gal(b1-4)GlcNAc(b1-2)Man(a1-3)]Man(b1-4)GlcNAc(b1-4)[Fuc(a1-6)]GlcNAc
Summary of the method: as §1

[9] = molecular target: GlcNAc(b1-3)Gal(b1-4)GlcNAc(b1-3)Gal(b1-4)GlcNAc(b1-3)GalNAc
Summary of the method: as §1

[10] = molecular target: GlcNAc(b1-3)Gal(b1-4)GlcNAc(b1-3)GalNAc
Summary of the method: as §1

[11] = molecular target: GlcNAc(b1-3)Gal(b1-4)GlcNAc(b1-3)[GlcNAc(b1-3)Gal(b1-4)GlcNAc(b1-3)]GalNAc
Summary of the method: as §1

[12] = molecular target: GlcNAc(b1-3)Gal(b1-4)GlcNAc(b1-6)[Gal(b1-3)]GalNAc
Summary of the method: as §1

[13] = molecular target: GlcNAc(b1-3)Gal(b1-4)GlcNAc(b1-6)[GlcNAc(b1-3)Gal(b1-3)]GalNAc
Summary of the method: as §1

[14] = molecular target: GlcNAc(b1-3)Gal(b1-4)GlcNAc(b1-6)[GlcNAc(b1-3)]Gal(b1-4)GlcNAc
Summary of the method: as §1

GlcNAc(b1-3)GalNAc = molecular target: GlcNAc(b1-3)GalNAc
Summary of the method: as §1

GlcNAc(b1-3)Man = molecular target: GlcNAc(b1-3)Man
Summary of the method: as §1

[15] = molecular target: GlcNAc(b1-3)[GlcNAc(b1-4)][GlcNAc(b1-6)]GlcNAc
Summary of the method: as §1

[16] = molecular target: GlcNAc(b1-3)[GlcNAc(b1-6)]Gal(b1-4)GlcNAc
Summary of the method: as §1

[17] = molecular target: GlcNAc(b1-3)[GlcNAc(b1-6)]GalNAc
Summary of the method: as §1

[18] = molecular target: GlcNAc(b1-4)Gal(b1-4)GlcNAc
Summary of the method: as §1

GlcNAc(b1-4)GlcNAc = molecular target: GlcNAc(b1-4)GlcNAc
Summary of the method: as §1

[19] = molecular target: GlcNAc(b1-4)GlcNAc(b1-4)GlcNAc
Summary of the method: as §1

[20] = molecular target: GlcNAc(b1-4)GlcNAc(b1-4)GlcNAc(b1-4)GlcNAc(b1-4)GlcNAc
Summary of the method: as §1

[21] = molecular target: GlcNAc(b1-4)GlcNAc(b1-4)GlcNAc(b1-4)GlcNAc(b1-4)GlcNAc(b1-4)GlcNAc
Summary of the method: as §1

[22] = molecular target: GlcNAc(b1-4)[GlcNAc(b1-6)]GalNAc
Summary of the method: as §1

[23] = molecular target: GlcNAc(b1-6)Gal(b1-4)GlcNAc
Summary of the method: as §1

GlcNAc(b1-6)GalNAc = molecular target: GlcNAc(b1-6)GalNAc
Summary of the method: as §1

[24] = molecular target: GlcNAc6S(b1-3)Gal(b1-4)GlcNAc
Summary of the method: as §1

Kdn(a2-3)Gal(b1-3)GalNAc = molecular target: Kdn(a2-3)Gal(b1-3)GalNAc
Summary of the method: as §1

Kdn(a2-3)Gal(b1-3)GlcNAc = molecular target: Kdn(a2-3)Gal(b1-3)GlcNAc
Summary of the method: as §1

Kdn(a2-3)Gal(b1-4)Glc = molecular target: Kdn(a2-3)Gal(b1-4)Glc
Summary of the method: as §1

Kdn(a2-3)Gal(b1-4)GlcNAc = molecular target: Kdn(a2-3)Gal(b1-4)GlcNAc
Summary of the method: as §1

[25] = molecular target: Kdn(a2-3)Gal(b1-4)[Fuc(a1-3)]GlcNAc
Summary of the method: as §1

Kdn(a2-6)Gal(b1-4)GlcNAc = molecular target: Kdn(a2-6)Gal(b1-4)GlcNAc
Summary of the method: as §1

[26] = molecular target: Man(a1-2)Man(a1-2)Man(a1-3)Man
Summary of the method: as §1

[27] = molecular target: Man(a1-2)Man(a1-2)Man(a1-6)[Man(a1-3)]Man
Summary of the method: as §1

Man(a1-2)Man(a1-3)Man = molecular target: Man(a1-2)Man(a1-3)Man
Summary of the method: as §1

[28] = molecular target: Man(a1-2)Man(a1-3)[Man(a1-2)Man(a1-6)]Man
Summary of the method: as §1

B1: Gs78B-bfa-542-29-542 (Bacteroides fragilis) (protein)
chain: SEDINRNPLLPTKEDEKMDGVIYGAYLPNLEKSVIPIGTASESTEPVNRYQIGVNLAGDAWAGYMSPRDNKFNGSKNFTNYFMYENWVNYVYSFMVTDVYSPWMQIKRISQDEGTRNDEIYALAQIIKIAALHRTTDMFGPIPYSQVGKGSFKVAYDSQESVYRSFLKELEEAVQTLDDYSNKSKEVLPAFDIVYNGDVNKWMRFANSLMLRLAIRVRFADAGLAKEYAEKAVKHPAGLINSKELAAQMGKGAGLQMKNPLKVINEEYNDTRMGATIYSYLAGYNDARAAVYFVKNNGFKAVRCGIAKSGDAYNGFTRPNVHEDDPLYWMKASEVCFLKAEGALAGFDMGGSAGDFYNAGIRMSFSENGLDNSSAETYLKDSTRKPANYTDTSNGELSANAPSSITIRWENGATEEEKLERIITQKYLAIFPNGQEAWTEWRRTGYPRQIVVAENKTNSAVLIGNGYDLGGVRRLPYPRTEYEQNGENLHNAISQYLGGVDNAATKVWWDKKSK
- glycan array binding signal (z-score) [1]: -0.713
- glycan array binding signal (z-score) [2]: -0.569
- glycan array binding signal (z-score) [3]: 1.64
- glycan array binding signal (z-score) [4]: -0.317
- glycan array binding signal (z-score) [5]: -0.497
- glycan array binding signal (z-score) [6]: 0.274
- glycan array binding signal (z-score) [7]: 0.697
- glycan array binding signal (z-score) [8]: 0.21
- glycan array binding signal (z-score) [9]: -0.855
- glycan array binding signal (z-score) [10]: -0.156
- glycan array binding signal (z-score) [11]: -0.098
- glycan array binding signal (z-score) [12]: 0.651
- glycan array binding signal (z-score) [13]: -0.669
- glycan array binding signal (z-score) [14]: -0.815
- glycan array binding signal (z-score) (GlcNAc(b1-3)GalNAc): -0.762
- glycan array binding signal (z-score) (GlcNAc(b1-3)Man): -0.383
- glycan array binding signal (z-score) [15]: -0.664
- glycan array binding signal (z-score) [16]: -0.833
- glycan array binding signal (z-score) [17]: -0.806
- glycan array binding signal (z-score) [18]: -0.828
- glycan array binding signal (z-score) (GlcNAc(b1-4)GlcNAc): -0.751
- glycan array binding signal (z-score) [19]: -0.801
- glycan array binding signal (z-score) [20]: -0.841
- glycan array binding signal (z-score) [21]: -0.83
- glycan array binding signal (z-score) [22]: -0.795
- glycan array binding signal (z-score) [23]: 0.621
- glycan array binding signal (z-score) (GlcNAc(b1-6)GalNAc): -0.233
- glycan array binding signal (z-score) [24]: 1.83
- glycan array binding signal (z-score) (Kdn(a2-3)Gal(b1-3)GalNAc): 0.54
- glycan array binding signal (z-score) (Kdn(a2-3)Gal(b1-3)GlcNAc): -0.533
- glycan array binding signal (z-score) (Kdn(a2-3)Gal(b1-4)Glc): -0.596
- glycan array binding signal (z-score) (Kdn(a2-3)Gal(b1-4)GlcNAc): 2.84
- glycan array binding signal (z-score) [25]: 2.32
- glycan array binding signal (z-score) (Kdn(a2-6)Gal(b1-4)GlcNAc): -0.582
- glycan array binding signal (z-score) [26]: -0.825
- glycan array binding signal (z-score) [27]: -0.856
- glycan array binding signal (z-score) (Man(a1-2)Man(a1-3)Man): -0.822
- glycan array binding signal (z-score) [28]: -0.828
